Source: patent US20250327071

Assays:
EZH2 = EZH2 (UniProt F7F5Z0); test: pull-down; settings: protein in cells, protein details: endogenous, Schwann cells
WDR5 = WDR5 (UniProt Q498M4); test: pull-down; settings: protein in cells, protein details: Schwann cells

Sequence: GUCCAAGCUUCCAUCUGGUCGCCCCCACGCAGCCGACCGCCCAGACACGCCGGGAAGGGCGCCCGCUUUGUGCAGCAGCUGGAGGGGAGGGAGCGGGAGAGCGCGGGCAGGGGGCGUGGGGGUGGGGGUGCCUCUGGCCGAGGAUCUCUCUGGAAGCUCCAGCAGCUCUUCUGCUCCAUUCUCUCUACCCUAACCCCUACCCUCAAGUUACCUAAAAUACUUAAACAAACAAACAGCCCAGACCUGUUCCGUUUUCACUCCUGUAUAAAUAGCACAGACUUUCCAAAAAAGCAAGACCGCAUUUACUCUUAUCACCAGACACUACUUUCCACCGUGUAAUUCAGAAAAAGGCAGUCAGCUUCCGUGAGUGCGGGUAAUUUUUUUUUUCUUCUCUCUCUCUCUCUUUUUUUCUCUGUCUUUUUUUUUUUUUCUUUUGCUUGCGGUUUUGAGCUGCCAAGAAAGUGAAGGAGGGGUUUGACUGUA [AS1 fragment (-966 to -483)]
- binding result (EZH2; RIP after overexpression of AS1 in Schwann cells, variant of EGR2-AS-RNA full length): binds
- binding result (WDR5; RIP, WDR5 binding reported for AS2 only, region-specific, non-binding implied, variant of EGR2-AS-RNA full length): no binding

Sequence: GUCCAAGCUUCCAUCUGGUCGCCCCCACGCAGCCGACCGCCCAGACACGCCGGGAAGGGCGCCCGCUUUGUGCAGCAGCUGGAGGGGAGGGAGCGGGAGAGCGCGGGCAGGGGGCGUGGGGGUGGGGGUGCCUCUGGCCGAGGAUCUCUCUGGAAGCUCCAGCAGCUCUUCUGCUCCAUUCUCUCUACCCUAACCCCUACCCUCAAGUUACCUAAAAUACUUAAACAAACAAACAGCCCAGACCUGUUCCGUUUUCACUCCUGUAUAAAUAGCACAGACUUUCCAAAAAAGCAAGACCGCAUUUACUCUUAUCACCAGACACUACUUUCCACCGUGUAAUUCAGAAAAAGGCAGUCAGCUUCCGUGAGUGCGGGUAAUUUUUUUUUUCUUCUCUCUCUCUCUCUUUUUUUCUCUGUCUUUUUUUUUUUUUCUUUUGCUUGCGGUUUUGAGCUGCCAAGAAAGUGAAGGAGGGGUUUGACUGUAGUGUCUCGGCAGCGCUCGGUUUCUUUCCGAAGUUUAAUUUUCCGGAAUGGCUCCCAAACAAGGGCUGGGGAGGCGGAGCCGCCACUACCGGAUCUUCUCCUUUUUUGGAAAGUCUCGGAGAACCGGAAUUCCUCCCCGCCCCAAGAGACAGAGCUACCAUCGCUGCCCGUGGGUUCACCCACGGCAGCCGCGUCAGGGUCGGUGAUCGCGCCUUCCCCGCGCUGAACUCUGCAGUCCGGAGUCCCCGUUGCAGGCAGGGGCCGAGAGCUCCAGACCCGGGCGGUUGUCCACCGGCAGCGAAUCGUUCCGGGCGAGCUCGGCGGAGCCCGCGCAGCCAAGCCCGUAUGCAAAUUGGCCAUGUGACCGGCAAAAGCUACCAGGCCCAGCCCUGUUCCUCAGUCCAUAUAUGGGCAGCGACGUCACGGGUUAUUGAAGACCUGCCCAUAAAUACUCCGAGCCUAACACUUUCCGUCUGAGAGAGCA [EGR2-AS-RNA full length]
- binding result (EZH2; RNA immunoprecipitation with qPCR after lentiviral overexpression in Schwann cells, p=0.026): binds
- binding result (WDR5; RNA immunoprecipitation with qPCR after lentiviral overexpression in Schwann cells, p=0.040): binds

Sequence: UGUCUCGGCAGCGCUCGGUUUCUUUCCGAAGUUUAAUUUUCCGGAAUGGCUCCCAAACAAGGGCUGGGGAGGCGGAGCCGCCACUACCGGAUCUUCUCCUUUUUUGGAAAGUCUCGGAGAACCGGAAUUCCUCCCCGCCCCAAGAGACAGAGCUACCAUCGCUGCCCGUGGGUUCACCCACGGCAGCCGCGUCAGGGUCGGUGAUCGCGCCUUCCCCGCGCUGAACUCUGCAGUCCGGAGUCCCCGUUGCAGGCAGGGGCCGAGAGCUCCAGACCCGGGCGGUUGUCCACCGGCAGCGAAUCGUUCCGGGCGAGCUCGGCGGAGCCCGCGCAGCCAAGCCCGUAUGCAAAUUGGCCAUGUGACCGGCAAAAGCUACCAGGCCCAGCCCUGUUCCUCAGUCCAUAUAUGGGCAGCGACGUCACGGGUUAUUGAAGACCUGCCCAUAAAUACUCCGAGCCUAACACUUUCCGUCUGAGAGAGCA [AS2 fragment (-482 to -1)]
- binding result (EZH2; RIP, EZH2 binding reported for AS1 only, region-specific, non-binding implied, variant of EGR2-AS-RNA full length): no binding
- binding result (WDR5; RIP after overexpression of AS2 in Schwann cells, variant of EGR2-AS-RNA full length): binds

For at least one entry, the source does not settle the construct or the ends of the probe. Where cells or extracts were used, other partners may take part. A negative result means that nothing was seen under these conditions.
